Measured values: paper PMC5085162
Results are given in words; binding and its absence hold for the method and conditions named. In cells and extracts the contact can be indirect. Some binding calls cover weakened binding; strength is not graded here. Tags and fused reporters may be left off the sequences shown.

By UniProt entry, the sequences of proteins in these tests, tags left out.
UniProt P05412: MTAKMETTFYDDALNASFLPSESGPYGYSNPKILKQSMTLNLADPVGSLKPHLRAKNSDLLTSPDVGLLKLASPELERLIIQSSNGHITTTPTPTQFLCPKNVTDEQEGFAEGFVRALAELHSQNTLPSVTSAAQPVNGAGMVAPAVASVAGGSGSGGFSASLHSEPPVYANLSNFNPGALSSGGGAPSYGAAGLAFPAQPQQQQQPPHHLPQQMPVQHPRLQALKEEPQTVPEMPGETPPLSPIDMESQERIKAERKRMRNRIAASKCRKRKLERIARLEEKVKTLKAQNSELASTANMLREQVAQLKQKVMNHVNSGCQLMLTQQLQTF

Molecular target: T1, HA-tagged FRA1DD, constitutively active phosphomimetic FRA1 (Fos-like antigen 1) mutant (UniProt P15407)
T1 sequence: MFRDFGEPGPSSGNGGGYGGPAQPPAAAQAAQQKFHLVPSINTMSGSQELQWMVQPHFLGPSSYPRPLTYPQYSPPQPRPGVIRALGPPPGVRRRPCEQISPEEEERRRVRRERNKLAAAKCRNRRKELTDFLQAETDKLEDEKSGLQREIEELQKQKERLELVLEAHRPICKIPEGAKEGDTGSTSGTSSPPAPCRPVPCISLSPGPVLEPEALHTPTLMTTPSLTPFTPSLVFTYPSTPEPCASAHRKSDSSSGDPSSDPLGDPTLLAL
Assay: co-IP; lysates of FaDu cells expressing HA-tagged FRA1DD; IP with an antibody against HA, immunoblotting for c-Jun and FRA1

binding: binds
Substance: c-Jun (from UniProt P05412 1-331)
